# In all, about 400,000 compounds went through this assay and about 3,700 (0.93%) were called active. Inconclusive results, whose numbers are uncertain, are shown with a selection of clear calls. Calls come from the whole dose curve; as a rule, active = well fitted inhibition curve with a large enough effect; inconclusive = small, poorly fitted or top-dose-only effect, or another doubt; inactive = no such curve, though single readings can be large or run the other way. Where the call is inconclusive, the potency comes from a doubtful curve fit.
# The chains behind the UniProt entries cited, without tags or fusion partners. Where a name states a change or a piece, a line headed by the entry shows the natural chain unless it says otherwise.
# UniProt P11473: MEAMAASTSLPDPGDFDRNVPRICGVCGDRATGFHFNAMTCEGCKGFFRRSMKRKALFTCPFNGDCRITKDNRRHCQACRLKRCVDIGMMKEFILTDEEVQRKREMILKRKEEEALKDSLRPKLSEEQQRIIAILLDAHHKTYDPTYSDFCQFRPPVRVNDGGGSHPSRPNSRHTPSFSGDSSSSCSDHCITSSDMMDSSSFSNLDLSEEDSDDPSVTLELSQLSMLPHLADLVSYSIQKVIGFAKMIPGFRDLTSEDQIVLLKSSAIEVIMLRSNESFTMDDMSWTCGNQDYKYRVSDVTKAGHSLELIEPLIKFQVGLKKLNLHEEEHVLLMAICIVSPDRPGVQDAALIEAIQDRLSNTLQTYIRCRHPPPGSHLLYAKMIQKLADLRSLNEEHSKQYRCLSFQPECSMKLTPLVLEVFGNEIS
# Target: Vitamin D3 receptor (Homo sapiens) (UniProt P11473)
# Assay: Inhibitors of the vitamin D receptor (VDR): qHTS
# Conditions: VDR-SRC2-3 peptide fluorescence polarization, 2 h; max response, negative = inhibition: hits give low values
# Summary of the method: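 Fluorescence polarization assay measuring small-molecule disruption of VDR binding to the coregulator peptide SRC2-3. Compounds were pin-transferred (23 nl) into the reagent mix and incubated 2 h at room temperature before reading.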
# % is set by controls: 0 for no effect and ±100 for the full control effect; potency is the fitted concentration of half-maximal effect.
Structure (SMILES),"max response, negative = inhibition",Potency
CNC(=S)NNC(=O)COc1ccccc1C,inactive: 2.75%,–
Cc1ccc(Nc2nc3ccccc3c(=O)[nH]2)cc1C,inactive: 1.68%,–
O=c1[nH]c(S)c(/C=C2\C=Nc3ccccc32)s1,–,"inconclusive: 50.1 µM [inhibitor, partial curve, poor fit]"
Cc1nn(-c2ccc(F)cc2)c(Cl)c1C(=O)NCC1CCCO1 (centres undefined),–,active: 89.1 µM
NC(=O)c1ncn([C@@H]2O[C@H](CN=C3NS(=O)(=O)c4ccccc43)[C@@H](O)[C@H]2O)n1,–,"inconclusive: 100 µM [inhibitor, partial curve, poor fit]"
COc1ccccc1-c1coc2c(CN3CCCCC3C)c(O)ccc2c1=O (centres undefined),–,"inconclusive: 100 µM [inhibitor, single point]"
Cc1ccc(C(C[N+](=O)[O-])n2nc(C)cc2C)cc1 (centres undefined),–,active: 79.4 µM
CC(C)(C)C1=CC(=O)C(=O)C(C(C)(C)C)=C1,–,"inconclusive: 39.8 µM [inhibitor, single point]"
COc1ccc(CCNC(=O)Nc2cc(F)c(F)cc2Cl)cc1OC,–,"inconclusive: 100 µM [inhibitor, single point]"
COc1ccc(NC(=O)CSc2ccc(-c3sc(C)nc3C)nn2)cc1OC,inactive: 5.2%,–
O=c1[nH]c(-c2ccccn2)nc2sc(-c3ccccc3)cc12,–,active: 79.4 µM
O=C(CSc1nccn(-c2ccc3c(c2)OCCO3)c1=O)Nc1ccccc1,–,"inconclusive: 89.1 µM [inhibitor, single point]"
Cc1ccc(-c2csc(NC(=S)NC(=O)c3cc4ccccc4o3)n2)cc1,inactive: -10.4%,–
Cc1nn(C)c(Oc2cccc(Cl)c2)c1C(=O)Nc1ccc(F)cc1,–,"inconclusive: 22.4 µM [inhibitor, partial curve, poor fit]"
CC(C)CC(=O)NC(NC(=S)Nc1ccccc1)C(Cl)(Cl)Cl (centres undefined),–,"inconclusive: 70.8 µM [inhibitor, partial curve]"
O=C(COC(=O)C12CC3CC(CC(Br)(C3)C1)C2)Nc1c(F)cccc1F,inactive: -6.13%,–
CCOC(=O)N1CCN(c2c(N3CCN(c4ccc(F)cc4)CC3)c(=O)c2=O)CC1,–,"inconclusive: 39.8 µM [inhibitor, partial curve, poor fit]"
CC(=O)Nc1sc(N/N=C\c2ccco2)nc1-c1cccs1,–,"inconclusive: 50.1 µM [inhibitor, partial curve, poor fit]"
Cc1cccc(Oc2c([N+](=O)[O-])c(=O)n(C)c3ccccc23)c1,–,active: 39.8 µM
O=C(/C=C/c1cccc([N+](=O)[O-])c1)Nc1cc(C(=O)O)cc(C(=O)O)c1,–,active: 35.5 µM
Cc1ccc(C(=O)CC2(O)C(=O)N(C)c3ccccc32)s1 (centres undefined),inactive: 21.1%,–
Cc1ccc(NC(=S)NNc2ncc(C(F)(F)F)cc2Cl)c(C)c1,–,"inconclusive: 39.8 µM [inhibitor, partial curve, poor fit]"
COc1ccc2c(c1OC)C(C1c3c(cc4c(c3OC)OCO4)CCN1C)OC2=O (centres undefined),inactive: -2.33%,–

# Compounds from the list above containing an NH in an aromatic ring:
Structure (SMILES),"max response, negative = inhibition",Potency
Cc1ccc(Nc2nc3ccccc3c(=O)[nH]2)cc1C,inactive: 1.68%,–
O=c1[nH]c(S)c(/C=C2\C=Nc3ccccc32)s1,–,"inconclusive: 50.1 µM [inhibitor, partial curve, poor fit]"
O=c1[nH]c(-c2ccccn2)nc2sc(-c3ccccc3)cc12,–,active: 79.4 µM

# Additional compounds follow.

Structure (SMILES),"max response, negative = inhibition",Potency
Cc1cc(-c2cccc([N+](=O)[O-])c2)nc2ccccc12,inactive: -7.06%,–
COC(=O)c1sc2nc(-c3ccccc3)c3c(c2c1N)CCCC3,inactive: -4.47%,–
N#CCCn1cc(C(=O)Nc2ccc(C(=O)O)cc2)c(-c2cccs2)n1,–,"inconclusive: 28.2 µM [inhibitor, partial curve, poor fit]"
COc1cc(C2CC(=O)Nc3c2c(=O)n(C)c(=O)n3C)cc(OC)c1OC (centres undefined),inactive: 7.1%,–
O=C1C=CC(=O)c2c(O)c(CO)c(CO)c(O)c21,–,"inconclusive: 79.4 µM [inhibitor, partial curve, poor fit]"
COC(=O)CNC(c1ccccc1)c1cc(Br)ccc1NC(=O)CCN1CCOCC1 (centres undefined),–,"inconclusive: 89.1 µM [inhibitor, partial curve, poor fit]"
CN(CC(=O)Nc1nc2ccc(F)cc2s1)S(=O)(=O)c1ccc(Cl)cc1,–,"inconclusive: 56.2 µM [inhibitor, partial curve, poor fit]"
COc1ccc(Br)cc1C1CC(=O)N2CN(C)CSC2=C1C#N (centres undefined),–,"inconclusive: 56.2 µM [inhibitor, partial curve, poor fit]"
Cc1ccc2nc(SCC(=O)Nc3cc(C)on3)c(C)cc2c1,inactive: -25.9%,–
Nc1ncnc(Nc2cc(Cl)cc(Cl)c2)c1[N+](=O)[O-],–,"inconclusive: 44.7 µM [inhibitor, partial curve, poor fit]"
CC(=O)NCCNc1ncnc2ccc(-c3ccccc3C(F)(F)F)cc12,–,"inconclusive: 50.1 µM [inhibitor, partial curve]"
COC(=O)c1ccc(/C=C/c2c(-c3ccsc3)sc3ccccc23)cc1,–,"inconclusive: 100 µM [inhibitor, single point]"
C#Cc1cccc(N2C(=O)C3C4C=CC(C3C2=O)C2C(=O)N(c3cccc(C#C)c3)C(=O)C42)c1 (centres undefined),inactive: -20.8%,–
Cc1ccc(-c2cc3ncc(C#N)c(N)n3n2)cc1,–,"inconclusive: 89.1 µM [inhibitor, partial curve, poor fit]"
COc1ccc2c(c1)CCc1cn[nH]c1-2,–,"inconclusive: 79.4 µM [inhibitor, partial curve]"
COc1ccc(C2C=C(C34CC5CC(CC(C5)C3)C4)NC(=S)N2)cc1OC (centres undefined),–,"inconclusive: 70.8 µM [inhibitor, single point]"
COc1cccc(Cn2c(=O)n(-c3ccc(Br)cc3F)c(=O)c3sc4ccccc4c32)c1,–,"inconclusive: 89.1 µM [inhibitor, single point]"
COc1cccc(/C=N/N2C(=O)CSC2=S)c1O,–,"inconclusive: 89.1 µM [inhibitor, single point]"
CCc1nc(CNC(=O)C2CCC(=O)N(Cc3ccccc3F)C2)no1 (centres undefined),–,"inconclusive: 89.1 µM [inhibitor, single point]"
CC(NCc1ccco1)C(=O)N1CCc2ccccc2C1 (centres undefined),inactive: -2.46%,–
CCOC(=O)CSC1=NC(=O)/C(=C/c2ccc(Br)cc2)S1,–,"inconclusive: 35.5 µM [inhibitor, single point]"
COC(=O)c1c(NC(=O)CN2CCN(S(=O)(=O)c3ccccc3[N+](=O)[O-])CC2)sc2c1CCC(C)C2 (centres undefined),–,"inconclusive: 89.1 µM [inhibitor, single point]"
COCCNC(=O)c1cc(Sc2ccc(F)cc2F)nc2ccccc12,inactive: 6.76%,–

Structure (SMILES),"max response, negative = inhibition",Potency
O=C(CCN1CCc2ccccc2C(c2ccccc2)C1)c1ccc2c(c1)OCCO2 (centres undefined),–,"inconclusive: 7.08 µM [inhibitor, single point]"
COc1ccc2ccccc2c1C1CC(=O)N2CN(C)CSC2=C1C#N (centres undefined),–,active: 25.1 µM
Oc1cccc(C(=S)N2CCCCC2)c1,–,"inconclusive: 31.6 µM [inhibitor, single point]"
CCC(=O)OCC(=O)N=c1sccn1Cc1ccccc1Cl,inactive: -19.5%,–
C[C@@H]1CN([C@H](C)CO)C(=O)c2cccc(NC(=O)Nc3ccc(F)cc3)c2O[C@H]1CN(C)C(=O)Nc1ccc(C(F)(F)F)cc1,inactive: -5.9%,–
CCOC(=O)N1CCN(c2cc(=O)n(-c3ccc(Br)cc3)c(=O)[nH]2)CC1,–,"inconclusive: 89.1 µM [inhibitor, single point]"
COc1ccc(C(=O)CC(SCC(NC(C)=O)C(=O)O)c2ccc(Cl)cc2)cc1OC (centres undefined),–,"inconclusive: 79.4 µM [inhibitor, partial curve]"
Cc1ccc(-c2nc(-c3cc4cccc(OCc5ccccc5F)c4oc3=O)no2)cc1,inactive: 11.6%,–
CCNc1nc(SCC(=O)Nc2ccc(Cl)c(Cl)c2)nc(N2CCOCC2)n1,inactive: -5.33%,–
CCOC(=O)c1ccc(COC(=O)c2ccc3c(c2)-c2ccccc2C3=O)cc1,–,"inconclusive: 79.4 µM [inhibitor, single point]"
O=C(CNc1ccccc1)N/N=C/c1ccc([N+](=O)[O-])cc1,inactive: -17.4%,–
c1ccc(-c2nnc(N3CCCC3)nc2-c2ccccc2)cc1,inactive: 10.9%,–
Cc1ccn2c(NC3CCCC3)c(-c3cccs3)nc2c1,–,active: 39.8 µM
O=c1oc(-c2ccccc2[N+](=O)[O-])nc2ccccc12,–,"inconclusive: 89.1 µM [inhibitor, partial curve, poor fit]"
CCOc1ncccc1C(=O)Nc1cc(S(=O)(=O)N2CCCCCC2)ccc1OC,inactive: -9.62%,–
Cc1ccc(C2CC(C(F)(F)F)n3ncc(C(=O)NCc4ccco4)c3N2)cc1 (centres undefined),inactive: 3.73%,–
CC(C)OC(=O)CC(=O)CSc1nc(-c2ccc(F)cc2)cc(-c2ccccc2)c1C#N,–,"inconclusive: 89.1 µM [inhibitor, partial curve, poor fit]"
CC(O)CNCCNCc1cccs1 (centres undefined),inactive: 1.69%,–
CC(=O)c1cccc(NS(=O)(=O)c2ccc(-c3cnc(C4CC4)o3)cc2)c1,–,"inconclusive: 63.1 µM [inhibitor, partial curve, poor fit]"
CSc1nc(=S)c2[nH]c(=S)[nH]c2[nH]1,–,"inconclusive: 56.2 µM [inhibitor, partial curve, poor fit]"
Nc1cc(N)nc(SCC(=O)c2ccccc2)n1,inactive: -6.81%,–
O=C(Cn1ccc(NC(=O)OCc2ccccc2)nc1=O)NCc1nc2ccccc2[nH]1,–,"inconclusive: 100 µM [inhibitor, single point]"
CC1(C)Cc2c(C#N)c(N3CCN(C(=O)c4ccccc4)CC3)nc(-c3ccco3)c2CS1,–,"inconclusive: 79.4 µM [inhibitor, partial curve]"

# — PubChem BioAssay AID504847 (National Center for Advancing Translational Sciences (NCATS), 2011)
